PubChem BioAssay AID1259424 – University of Nebraska Medical Center – 2018
The whole screen tested about 14,000 reagents; this is an unselected part. 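Higher correlation or smaller distance means closer resemblance to KSR1 loss; control wells, including KSR1 knockdowns, recur on many plates.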 Not all columns of the deposit are shown. Reagent sequences are not shown. Not given: the time to read-out.

Aim: 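Find knockdowns that reproduce the expression shifts seen after KSR1 loss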 (primary screen)
System: human HCT116 colon cancer cells
Reagent: siRNA pool against human genes, 50 nM
Measurement: 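Log2 levels of six mRNAs (branched-DNA multiplex), adjusted by two reference genes and the non-targeting median, then scored against the average KSR1 knockdown pattern as Pearson r and euclidean distance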
Direction: mean correlation with KSR1 profile: higher = expression change more like KSR1 knockdown

What is on record for LRIG1 (GeneID 26018)?
mean correlation with KSR1 profile: -0.11

With MBTPS2 (GeneID 51360), how do the results read?
mean correlation with KSR1 profile: -0.156

What is on record for OAS1 (GeneID 4938)?
mean correlation with KSR1 profile: 0.134

What is on record for CFAP44 (GeneID 55779)?
mean correlation with KSR1 profile: -0.471

For KCNE2 (GeneID 9992), what was measured?
mean correlation with KSR1 profile: -0.211

With NAP1L4 (GeneID 4676), what was measured?
mean correlation with KSR1 profile: -0.541

Which result is listed for EVI5L (GeneID 115704)?
mean correlation with KSR1 profile: 0.37

What is on record for NPM2 (GeneID 10361)?
mean correlation with KSR1 profile: -0.361

Which result is listed for NFIC (GeneID 4782)?
mean correlation with KSR1 profile: 0.763

For PEX1 (GeneID 5189), what was measured?
mean correlation with KSR1 profile: -0.213

What did the screen give for CCDC82 (GeneID 79780)?
mean correlation with KSR1 profile: 0.198

In a second layout: 2 of the entries above
gene symbol | mean correlation with KSR1 profile
EVI5L (GeneID 115704) | 0.37
NPM2 (GeneID 10361) | -0.361

The list goes on.
For CEP89 (GeneID 84902), how do the results read?
mean correlation with KSR1 profile: 0.771

With EGFL7 (GeneID 51162), how do the results read?
mean correlation with KSR1 profile: -0.855

With ADAMTSL1 (GeneID 92949), how do the results read?
mean correlation with KSR1 profile: 0.68

What did the screen give for H2BC12 (GeneID 85236)?
mean correlation with KSR1 profile: 0.548

How did the screen score TMA7 (GeneID 51372)?
mean correlation with KSR1 profile: 0.436

Which result is listed for CPD (GeneID 1362)?
mean correlation with KSR1 profile: -0.0536

What did the screen give for SMR3A (GeneID 26952)?
mean correlation with KSR1 profile: 0.234

For KIF26A (GeneID 26153), what was measured?
mean correlation with KSR1 profile: 0.465

With GRM1 (GeneID 2911), how do the results read?
mean correlation with KSR1 profile: 0.678

With GPR180 (GeneID 160897), what does the deposit list?
mean correlation with KSR1 profile: -0.48

With ELF1 (GeneID 1997), how do the results read?
mean correlation with KSR1 profile: 0.635

What did the screen give for ERCC4 (GeneID 2072)?
mean correlation with KSR1 profile: -0.476

For CDHR5 (GeneID 53841), what does the deposit list?
mean correlation with KSR1 profile: 0.451

With CTC1 (GeneID 80169), what does the deposit list?
mean correlation with KSR1 profile: 0.726

What did the screen give for MOB3B (GeneID 79817)?
mean correlation with KSR1 profile: -0.188

With PCSK1N (GeneID 27344), what was measured?
mean correlation with KSR1 profile: 0.525

For CYP4B1 (GeneID 1580), what does the deposit list?
mean correlation with KSR1 profile: -0.382
